The exact form of at least one protein or probe is not confirmed. At least one verdict rests on a figure or table, not on a statement of the authors.
Tests used:
[1] = target: full-length human cGAS (hcGAS-FL) (human) (UniProt Q8N884); test: in vitro phase separation (fluorescence microscopy); details: 20 mM Tris-HCl pH 7.5, 300 mM NaCl, condensation read-out; Phase separation: 20 mM Tris-HCl pH 7.5, 150 mM NaCl (45-bp ISD, phase diagrams) or 300 mM NaCl (100-bp DNA), 1 mg/ml BSA; recombinant protein; residues 1-522; label: Cy3 on sense strand (2% labeled)
[2] = target: full-length human cGAS (hcGAS-FL) (human) (UniProt Q8N884); test: in vitro phase separation (confocal microscopy); details: physiological buffer with or without 200 uM Zn2+, Zn2+ promotes condensation; Phase separation: 20 mM Tris-HCl pH 7.5, 150 mM NaCl (45-bp ISD, phase diagrams) or 300 mM NaCl (100-bp DNA), 1 mg/ml BSA; recombinant protein; residues 1-522; label: Cy3 on sense strand

Chains of the proteins cited; added tags and fusions are not shown.
UniProt Q8N884, whole entry: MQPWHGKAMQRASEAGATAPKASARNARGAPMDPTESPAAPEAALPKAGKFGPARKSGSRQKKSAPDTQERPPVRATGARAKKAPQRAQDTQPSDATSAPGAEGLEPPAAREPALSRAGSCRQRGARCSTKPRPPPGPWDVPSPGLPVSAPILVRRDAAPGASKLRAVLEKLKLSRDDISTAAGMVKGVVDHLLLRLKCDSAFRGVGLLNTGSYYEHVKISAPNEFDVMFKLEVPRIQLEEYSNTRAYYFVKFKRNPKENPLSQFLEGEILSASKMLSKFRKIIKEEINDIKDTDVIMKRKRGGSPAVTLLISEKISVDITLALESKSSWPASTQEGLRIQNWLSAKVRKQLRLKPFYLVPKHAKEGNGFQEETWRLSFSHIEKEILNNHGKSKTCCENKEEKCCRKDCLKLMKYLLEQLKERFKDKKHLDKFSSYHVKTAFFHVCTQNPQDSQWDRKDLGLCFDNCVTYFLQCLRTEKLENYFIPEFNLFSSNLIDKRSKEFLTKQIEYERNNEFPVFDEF

Sequence: ACATCTAGTACATGTCTAGTCAGTATCTAGTGATTATCTAGACATACATCTAGTACATGTCTAGTCAGTATCTAGTGATTATCTAGACATGGACTCATCC (double strand) [100-bp Cy3-DNA]
- binding result [1]: binds

Sequence: TACAGATCTACTAGTGATCTATGACTGATCTGTACATGATCTACA (double strand) [45-bp Cy3-ISD]
- binding result [2]: binds
